## Screening data, single-dose tests

The chains behind the UniProt entries cited, without tags or fusion partners. Residues count along the entry.
UniProt P9WFT3, whole entry: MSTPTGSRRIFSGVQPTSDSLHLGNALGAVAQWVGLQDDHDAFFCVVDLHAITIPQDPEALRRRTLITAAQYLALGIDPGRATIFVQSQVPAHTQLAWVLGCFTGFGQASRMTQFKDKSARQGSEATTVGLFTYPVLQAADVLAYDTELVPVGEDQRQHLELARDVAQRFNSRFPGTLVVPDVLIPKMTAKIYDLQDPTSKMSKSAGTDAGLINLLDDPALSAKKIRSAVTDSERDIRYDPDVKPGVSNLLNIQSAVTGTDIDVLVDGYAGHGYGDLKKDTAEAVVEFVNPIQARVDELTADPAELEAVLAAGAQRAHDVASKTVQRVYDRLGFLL
UniProt I6X8D2, whole entry: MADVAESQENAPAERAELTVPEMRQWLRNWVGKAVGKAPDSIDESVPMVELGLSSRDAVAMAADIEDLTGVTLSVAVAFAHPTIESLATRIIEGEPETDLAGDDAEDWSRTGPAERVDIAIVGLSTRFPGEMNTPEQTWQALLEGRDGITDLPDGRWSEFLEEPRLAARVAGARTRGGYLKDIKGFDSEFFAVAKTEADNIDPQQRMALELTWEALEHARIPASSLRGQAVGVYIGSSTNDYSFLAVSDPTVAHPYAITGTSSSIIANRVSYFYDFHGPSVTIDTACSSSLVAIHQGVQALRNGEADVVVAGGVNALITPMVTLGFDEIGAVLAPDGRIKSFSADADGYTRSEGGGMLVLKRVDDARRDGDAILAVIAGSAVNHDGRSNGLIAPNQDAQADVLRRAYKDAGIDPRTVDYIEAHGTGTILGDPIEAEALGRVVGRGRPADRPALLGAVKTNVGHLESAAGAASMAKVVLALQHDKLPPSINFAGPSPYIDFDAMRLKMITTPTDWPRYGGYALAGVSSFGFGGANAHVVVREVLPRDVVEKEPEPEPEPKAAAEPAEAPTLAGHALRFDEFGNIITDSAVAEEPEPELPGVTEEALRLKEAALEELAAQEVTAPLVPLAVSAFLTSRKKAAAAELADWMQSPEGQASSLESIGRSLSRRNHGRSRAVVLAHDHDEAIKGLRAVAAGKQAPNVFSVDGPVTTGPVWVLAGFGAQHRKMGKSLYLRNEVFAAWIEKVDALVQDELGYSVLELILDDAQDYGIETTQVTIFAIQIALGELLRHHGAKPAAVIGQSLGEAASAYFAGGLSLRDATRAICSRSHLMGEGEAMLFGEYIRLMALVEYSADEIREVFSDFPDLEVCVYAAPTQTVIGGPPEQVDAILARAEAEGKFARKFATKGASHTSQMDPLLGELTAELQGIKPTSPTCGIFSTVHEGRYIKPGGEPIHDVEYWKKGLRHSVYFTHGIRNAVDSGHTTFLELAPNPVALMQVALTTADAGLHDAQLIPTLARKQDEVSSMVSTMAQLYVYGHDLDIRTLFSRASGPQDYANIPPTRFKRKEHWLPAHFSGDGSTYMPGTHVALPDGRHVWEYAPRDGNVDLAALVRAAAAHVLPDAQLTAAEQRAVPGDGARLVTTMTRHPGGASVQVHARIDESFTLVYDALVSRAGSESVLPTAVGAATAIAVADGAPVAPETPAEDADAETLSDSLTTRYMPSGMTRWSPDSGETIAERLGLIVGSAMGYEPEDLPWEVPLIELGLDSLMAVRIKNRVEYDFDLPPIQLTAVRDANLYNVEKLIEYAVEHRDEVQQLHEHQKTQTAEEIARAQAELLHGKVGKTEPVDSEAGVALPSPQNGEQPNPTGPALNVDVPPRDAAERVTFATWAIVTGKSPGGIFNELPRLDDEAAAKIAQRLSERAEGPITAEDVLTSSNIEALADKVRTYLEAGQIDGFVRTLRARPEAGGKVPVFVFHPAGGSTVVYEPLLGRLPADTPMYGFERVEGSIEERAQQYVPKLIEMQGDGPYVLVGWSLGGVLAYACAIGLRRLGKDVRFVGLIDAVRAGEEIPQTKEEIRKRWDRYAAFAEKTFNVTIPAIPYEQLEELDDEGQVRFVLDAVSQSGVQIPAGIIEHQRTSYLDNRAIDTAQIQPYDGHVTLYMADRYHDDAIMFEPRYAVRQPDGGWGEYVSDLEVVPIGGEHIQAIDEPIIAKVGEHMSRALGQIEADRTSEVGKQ
UniProt Q4DA54, 1-478: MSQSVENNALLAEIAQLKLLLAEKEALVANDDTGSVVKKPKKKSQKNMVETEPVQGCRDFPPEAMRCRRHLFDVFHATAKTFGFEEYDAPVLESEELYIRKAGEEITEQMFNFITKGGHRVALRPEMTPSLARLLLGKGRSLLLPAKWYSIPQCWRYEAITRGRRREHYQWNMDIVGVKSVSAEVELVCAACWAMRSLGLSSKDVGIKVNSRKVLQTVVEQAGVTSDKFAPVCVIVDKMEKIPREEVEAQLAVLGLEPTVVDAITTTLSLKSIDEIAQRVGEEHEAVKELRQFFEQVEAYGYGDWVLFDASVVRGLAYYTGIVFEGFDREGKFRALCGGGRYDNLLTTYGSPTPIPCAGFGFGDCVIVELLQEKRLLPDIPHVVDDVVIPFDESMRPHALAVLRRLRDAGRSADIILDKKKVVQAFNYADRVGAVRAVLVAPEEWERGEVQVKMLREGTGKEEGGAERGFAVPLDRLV

The values are deposited in ChEMBL (CHEMBL3988442, “University of Dundee, Small-Polar-MMV Screening Library” (2021)).

Values are the deposited “Percent Effect”, in %.
How 0% and 100% were set is not recorded. Most values in the screen are low, and negative values occur.
Compounds were drawn at random from those tested, without regard to their results.

MtTrpRS: 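Enzyme assay of tryptophanyl-tRNA synthetase; the read-out is not stated. Target: Tryptophan-tRNA ligase, Mycobacterium tuberculosis (UniProt P9WFT3). Tested at 10 µM. Higher most likely means stronger inhibition; the record gives no direction and few retests gave an IC50. Of about 65,000 compounds tested this way, about 64 (0.098%) reached 50% or more in at least one test.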
Leishmania in macrophages: 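Cell assay of Leishmania donovani living inside macrophages; the read-out is not stated. Compounds at 30 µM. Direction is inferred from retests: higher values go with stronger inhibition. About 69,000 compounds were tested under these conditions; 1.5% (about 1,000) showed 50% or more at least once.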
Pks13 thioesterase: 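Polyketide synthase Pks13, Mycobacterium tuberculosis (UniProt I6X8D2). Enzyme assay of the thioesterase domain of polyketide synthase 13; the read-out is not stated. Tested at 30 µM. The record gives no direction; the compounds picked for IC50 retests had high values, so higher reads as stronger inhibition. About 67,000 compounds were tested under these conditions; 0.46% (about 300) showed 50% or more at least once.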
TcHisRS: 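Histidine-tRNA ligase, Trypanosoma cruzi CL Brener (UniProt Q4DA54). Enzyme assay of histidyl-tRNA synthetase; the read-out is not stated. Tested at 30 µM. The record gives no direction; compounds that gave an IC50 in retests scored well above the rest, so higher reads as stronger inhibition. Of about 69,000 compounds tested this way, about 31 (0.045%) reached 50% or more in at least one test.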

Result for CCn1c(C)nnc1CN(C)C1CCN(CCCSC)C1 (centres unmarked) was MtTrpRS: 1.379%; Leishmania in macrophages: -1.728%; Pks13 thioesterase: -26.79%; TcHisRS: 7.289%. Result for CCNc1ncc(C(=O)N[C@@H](C)[C@H](O)c2ccccc2)cn1 was MtTrpRS: 0.1032%; Leishmania in macrophages: -14.51%; Pks13 thioesterase: -18.65%; TcHisRS: 0%. For CCC(Nc1ccc(Oc2ccc(C#N)cc2OC)cc1)C(N)=O (centres unmarked) the result was MtTrpRS: -10.05%; Leishmania in macrophages: 15.12%; Pks13 thioesterase: -20.03%; TcHisRS: 4.202%. C[C@H]1C[C@@H]2CCN(Cc3nccs3)C[C@H]2O1 read MtTrpRS: 1.453%; Pks13 thioesterase: -25.91%; TcHisRS: 3.681%. With Cc1cc(CN2C[C@@H]3COC[C@]3(CNS(C)(=O)=O)C2)no1 the screen gave MtTrpRS: -0.9053%; Pks13 thioesterase: 4.136%; TcHisRS: 1.97%.

With O=C1O[C@@H]2CN(c3ccccn3)C[C@@H]2N1CCCc1ccc(F)cc1 the screen gave MtTrpRS: -2.974%; Pks13 thioesterase: -15.81%; TcHisRS: 5.946%. Result for CN(C)c1cncc(C2CCN(CCO)CC2)n1 was MtTrpRS: 1.087%; Leishmania in macrophages: 34.76%; Pks13 thioesterase: -36.17%; TcHisRS: 1.622%. Result for CN(Cc1ccon1)CC1CCOc2ccccc2C1 (centres unmarked) was MtTrpRS: 1.652%; Leishmania in macrophages: 16.95%; Pks13 thioesterase: -5.489%; TcHisRS: 2.564%. With Cc1ccc(O)c(CNC2CCc3nc(C(C)C)nn3C2)n1 (centres unmarked) the screen gave MtTrpRS: 0.3178%; Leishmania in macrophages: 0.7212%; Pks13 thioesterase: -16.78%; TcHisRS: 3.261%. Result for Cc1noc(C)c1CN1C[C@@H]2COC[C@H](C(=O)N3CCOCC3)[C@@H]2C1 was MtTrpRS: 0.7819%; Pks13 thioesterase: -4.389%; TcHisRS: 7.843%.

For COCCn1ccc2ccc(C(=O)N3CCN(C(C)=O)CC3)cc21 the result was MtTrpRS: 6.009%; Leishmania in macrophages: -23.09%; Pks13 thioesterase: -19.63%; TcHisRS: 7%. Result for O=C(c1cccc(F)c1)N1CCC2(CC1)CC(N1CCOCC1)C2 was MtTrpRS: -6.302%; Pks13 thioesterase: -19.13%; TcHisRS: -3.365%. With Cc1cc(N(C)C)nc(C2(C)CCCN2C(=O)c2cnccn2)n1 (centres unmarked) the screen gave MtTrpRS: -0.3524%; Leishmania in macrophages: 28.14%; Pks13 thioesterase: -36.44%; TcHisRS: -2.732%. CC(Oc1cc(Cl)cc(Cl)c1)C(=O)NCCS(N)(=O)=O (centres unmarked) gave MtTrpRS: -1.152%; Leishmania in macrophages: 10.11%; Pks13 thioesterase: 9.423%; TcHisRS: 5.941%. O=S(=O)(NC[C@H]1OC[C@@H](NCc2cccs2)[C@@H]1O)c1ccccc1 gave MtTrpRS: -1.442%; Leishmania in macrophages: 12.21%; TcHisRS: 0%.

CN(CCO)Cc1nnc(C2CCN(C(=O)c3ccccc3)CC2)n1C gave MtTrpRS: -3.8%; Leishmania in macrophages: 22.2%; Pks13 thioesterase: -5.028%; TcHisRS: -26.82%. With COc1c(NS(=O)(=O)c2ccc(F)c(C)c2)c(C)nn1C the screen gave MtTrpRS: 1.615%; Leishmania in macrophages: 28.52%; Pks13 thioesterase: -28.06%; TcHisRS: 5.435%. For CC(C)C(NC(=O)N1CCS(=O)(=O)CC1)c1ccccc1Cl (centres unmarked) the result was MtTrpRS: 0.7341%; Leishmania in macrophages: 23.48%; Pks13 thioesterase: -17.09%; TcHisRS: 11.34%. For CCCN1CCN(c2ccc(-c3nc(C)no3)cn2)CC1 the result was MtTrpRS: -3.75%; Leishmania in macrophages: 6.325%; Pks13 thioesterase: 2.762%; TcHisRS: -1.554%. Result for CCS(=O)(=O)NCCNC(C)(C)c1nc(C)cs1 was MtTrpRS: -0.6744%; Leishmania in macrophages: 45.25%; Pks13 thioesterase: -34.4%; TcHisRS: 6.952%.

O=C1NCCCCC1NC(=O)C1(Oc2ccc(Cl)cc2)CCNCC1 (centres unmarked) gave MtTrpRS: 0.819%; Leishmania in macrophages: 31.6%; Pks13 thioesterase: -26.06%; TcHisRS: 2.762%.

The first 2 entries again:

| SMILES | MtTrpRS | Leishmania in macrophages | Pks13 thioesterase | TcHisRS |
|---|---|---|---|---|
| `CCn1c(C)nnc1CN(C)C1CCN(CCCSC)C1` (centres unmarked) | 1.379% | -1.728% | -26.79% | 7.289% |
| `CCNc1ncc(C(=O)N[C@@H](C)[C@H](O)c2ccccc2)cn1` | 0.1032% | -14.51% | -18.65% | 0% |